From PMC2291454 come the findings set out here.

Protein sequences, listed by entry. Tags and fused reporters are not part of them. Lines headed by an entry give the natural chain unless they say otherwise; changes in a name come on top. Chains listed by the source or under a name are the forms on record and can include a tag or linker.
UniProt Q92574: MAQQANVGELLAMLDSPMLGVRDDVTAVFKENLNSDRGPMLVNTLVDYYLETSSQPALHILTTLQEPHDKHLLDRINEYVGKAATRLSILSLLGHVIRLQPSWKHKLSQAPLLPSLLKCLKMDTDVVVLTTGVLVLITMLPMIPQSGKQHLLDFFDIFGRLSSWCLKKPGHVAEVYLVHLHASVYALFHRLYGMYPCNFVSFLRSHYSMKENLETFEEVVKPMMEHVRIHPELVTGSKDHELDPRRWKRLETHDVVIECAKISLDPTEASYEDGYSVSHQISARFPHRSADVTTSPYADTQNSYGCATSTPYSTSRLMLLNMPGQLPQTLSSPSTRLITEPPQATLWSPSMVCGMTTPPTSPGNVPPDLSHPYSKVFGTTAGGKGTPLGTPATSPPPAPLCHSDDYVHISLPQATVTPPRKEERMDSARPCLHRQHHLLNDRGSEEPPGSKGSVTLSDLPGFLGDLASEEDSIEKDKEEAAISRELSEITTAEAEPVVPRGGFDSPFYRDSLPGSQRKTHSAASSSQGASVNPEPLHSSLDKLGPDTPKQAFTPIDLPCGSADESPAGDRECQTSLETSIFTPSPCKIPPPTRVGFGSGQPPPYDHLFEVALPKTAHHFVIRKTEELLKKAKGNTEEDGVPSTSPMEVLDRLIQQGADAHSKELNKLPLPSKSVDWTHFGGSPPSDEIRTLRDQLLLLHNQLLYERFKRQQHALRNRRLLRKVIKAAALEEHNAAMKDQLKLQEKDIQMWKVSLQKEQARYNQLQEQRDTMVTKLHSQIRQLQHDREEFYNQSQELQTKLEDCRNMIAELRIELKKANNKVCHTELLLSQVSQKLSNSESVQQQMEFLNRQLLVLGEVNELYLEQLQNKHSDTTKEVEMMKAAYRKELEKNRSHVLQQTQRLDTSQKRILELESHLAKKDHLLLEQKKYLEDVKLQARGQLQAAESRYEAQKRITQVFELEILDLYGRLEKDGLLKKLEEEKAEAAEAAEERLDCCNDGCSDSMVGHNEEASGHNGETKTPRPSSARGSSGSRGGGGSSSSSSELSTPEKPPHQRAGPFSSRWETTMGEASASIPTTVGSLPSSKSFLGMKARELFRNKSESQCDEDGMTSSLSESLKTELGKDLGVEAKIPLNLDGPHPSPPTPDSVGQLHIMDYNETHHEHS
TSC2 I820del variant (P49815-4, form named): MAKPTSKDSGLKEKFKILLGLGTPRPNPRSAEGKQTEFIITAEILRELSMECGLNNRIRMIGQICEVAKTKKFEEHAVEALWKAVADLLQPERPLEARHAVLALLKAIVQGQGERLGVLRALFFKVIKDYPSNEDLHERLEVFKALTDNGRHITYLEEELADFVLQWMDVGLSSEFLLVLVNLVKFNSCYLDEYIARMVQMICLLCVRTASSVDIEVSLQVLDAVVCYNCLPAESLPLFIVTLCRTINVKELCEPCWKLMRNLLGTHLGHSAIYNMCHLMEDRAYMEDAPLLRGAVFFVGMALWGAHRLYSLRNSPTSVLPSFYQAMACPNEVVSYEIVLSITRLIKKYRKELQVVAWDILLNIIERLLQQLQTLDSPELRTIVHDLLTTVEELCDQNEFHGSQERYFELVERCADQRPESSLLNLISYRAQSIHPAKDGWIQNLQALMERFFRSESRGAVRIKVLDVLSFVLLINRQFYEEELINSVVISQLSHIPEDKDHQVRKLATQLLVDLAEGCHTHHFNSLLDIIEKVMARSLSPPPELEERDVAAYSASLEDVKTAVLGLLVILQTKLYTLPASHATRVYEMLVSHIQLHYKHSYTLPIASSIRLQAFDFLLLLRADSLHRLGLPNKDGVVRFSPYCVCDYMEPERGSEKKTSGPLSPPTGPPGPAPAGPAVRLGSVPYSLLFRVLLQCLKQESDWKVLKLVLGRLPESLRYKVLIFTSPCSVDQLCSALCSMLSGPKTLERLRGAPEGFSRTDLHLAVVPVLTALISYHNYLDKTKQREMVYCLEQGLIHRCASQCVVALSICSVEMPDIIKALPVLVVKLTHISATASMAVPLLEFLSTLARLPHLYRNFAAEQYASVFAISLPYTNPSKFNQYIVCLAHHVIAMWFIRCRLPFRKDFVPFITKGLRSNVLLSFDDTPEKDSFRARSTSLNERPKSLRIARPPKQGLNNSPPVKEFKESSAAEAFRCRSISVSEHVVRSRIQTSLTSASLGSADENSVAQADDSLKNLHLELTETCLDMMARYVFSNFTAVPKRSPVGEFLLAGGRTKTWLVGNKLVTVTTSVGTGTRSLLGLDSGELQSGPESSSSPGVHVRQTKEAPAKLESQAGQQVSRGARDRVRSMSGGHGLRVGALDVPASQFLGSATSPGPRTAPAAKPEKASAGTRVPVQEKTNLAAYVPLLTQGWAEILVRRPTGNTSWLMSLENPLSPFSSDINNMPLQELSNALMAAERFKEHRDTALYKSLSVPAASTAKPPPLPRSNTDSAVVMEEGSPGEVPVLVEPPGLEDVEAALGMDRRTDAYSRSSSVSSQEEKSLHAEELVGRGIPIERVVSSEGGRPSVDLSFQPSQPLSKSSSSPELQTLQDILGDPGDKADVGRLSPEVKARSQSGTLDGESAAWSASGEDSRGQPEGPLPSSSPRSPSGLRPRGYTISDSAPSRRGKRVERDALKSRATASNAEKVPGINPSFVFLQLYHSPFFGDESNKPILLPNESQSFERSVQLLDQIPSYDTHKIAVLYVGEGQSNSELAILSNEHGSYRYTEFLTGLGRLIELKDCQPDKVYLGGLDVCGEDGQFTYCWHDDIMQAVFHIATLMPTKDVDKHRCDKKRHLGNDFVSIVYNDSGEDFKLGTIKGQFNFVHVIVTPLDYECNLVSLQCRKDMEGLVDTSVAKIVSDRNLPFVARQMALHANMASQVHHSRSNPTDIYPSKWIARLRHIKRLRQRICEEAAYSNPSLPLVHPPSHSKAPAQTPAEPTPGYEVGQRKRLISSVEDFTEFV
TSC2 L1511H variant (P49815-4, form named): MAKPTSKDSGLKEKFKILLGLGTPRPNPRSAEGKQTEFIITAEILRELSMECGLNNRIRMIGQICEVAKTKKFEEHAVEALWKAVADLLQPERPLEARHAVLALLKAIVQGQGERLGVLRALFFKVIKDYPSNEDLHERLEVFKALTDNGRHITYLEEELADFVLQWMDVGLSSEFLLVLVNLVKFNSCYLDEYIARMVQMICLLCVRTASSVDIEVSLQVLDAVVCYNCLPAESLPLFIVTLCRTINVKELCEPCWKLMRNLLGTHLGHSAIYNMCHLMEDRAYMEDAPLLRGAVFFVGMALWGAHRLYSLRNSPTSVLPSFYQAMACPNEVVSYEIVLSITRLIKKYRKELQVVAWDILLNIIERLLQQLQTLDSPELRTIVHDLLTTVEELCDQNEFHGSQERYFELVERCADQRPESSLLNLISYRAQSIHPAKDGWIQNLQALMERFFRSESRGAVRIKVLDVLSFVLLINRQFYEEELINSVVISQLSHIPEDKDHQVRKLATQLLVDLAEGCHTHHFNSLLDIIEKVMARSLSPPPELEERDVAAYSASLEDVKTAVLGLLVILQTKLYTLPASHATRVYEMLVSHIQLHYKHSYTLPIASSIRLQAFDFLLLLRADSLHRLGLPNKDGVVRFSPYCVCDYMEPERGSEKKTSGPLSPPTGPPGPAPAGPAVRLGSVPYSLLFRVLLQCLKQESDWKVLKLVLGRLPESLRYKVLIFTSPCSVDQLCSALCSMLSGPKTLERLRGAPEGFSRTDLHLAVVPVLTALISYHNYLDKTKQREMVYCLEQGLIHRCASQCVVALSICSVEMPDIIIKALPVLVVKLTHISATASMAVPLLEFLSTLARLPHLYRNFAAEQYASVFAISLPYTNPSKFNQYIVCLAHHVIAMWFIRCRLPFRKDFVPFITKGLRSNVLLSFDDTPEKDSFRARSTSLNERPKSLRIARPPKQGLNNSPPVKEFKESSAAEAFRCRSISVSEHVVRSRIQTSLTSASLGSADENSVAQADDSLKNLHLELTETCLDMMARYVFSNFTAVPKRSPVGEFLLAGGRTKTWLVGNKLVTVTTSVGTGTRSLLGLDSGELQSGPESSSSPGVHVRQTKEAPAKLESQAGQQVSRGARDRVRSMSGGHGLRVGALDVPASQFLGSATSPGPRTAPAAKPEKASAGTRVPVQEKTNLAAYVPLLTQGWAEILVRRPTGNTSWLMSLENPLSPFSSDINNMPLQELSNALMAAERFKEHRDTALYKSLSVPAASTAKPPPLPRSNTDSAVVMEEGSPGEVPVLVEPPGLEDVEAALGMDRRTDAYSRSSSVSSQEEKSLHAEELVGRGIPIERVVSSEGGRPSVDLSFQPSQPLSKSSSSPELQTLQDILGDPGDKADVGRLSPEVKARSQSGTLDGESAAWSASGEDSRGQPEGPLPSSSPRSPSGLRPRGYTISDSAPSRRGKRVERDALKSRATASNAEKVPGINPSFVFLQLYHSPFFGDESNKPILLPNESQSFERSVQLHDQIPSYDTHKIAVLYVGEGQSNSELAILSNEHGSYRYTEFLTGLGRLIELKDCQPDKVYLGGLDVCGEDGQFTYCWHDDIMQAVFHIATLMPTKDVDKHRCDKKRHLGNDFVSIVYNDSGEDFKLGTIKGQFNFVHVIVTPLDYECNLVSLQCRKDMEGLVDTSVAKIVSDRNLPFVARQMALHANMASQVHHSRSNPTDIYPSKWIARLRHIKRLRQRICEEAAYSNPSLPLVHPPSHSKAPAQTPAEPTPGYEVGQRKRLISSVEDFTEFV
TSC2 R1772C variant (P49815-4, form named): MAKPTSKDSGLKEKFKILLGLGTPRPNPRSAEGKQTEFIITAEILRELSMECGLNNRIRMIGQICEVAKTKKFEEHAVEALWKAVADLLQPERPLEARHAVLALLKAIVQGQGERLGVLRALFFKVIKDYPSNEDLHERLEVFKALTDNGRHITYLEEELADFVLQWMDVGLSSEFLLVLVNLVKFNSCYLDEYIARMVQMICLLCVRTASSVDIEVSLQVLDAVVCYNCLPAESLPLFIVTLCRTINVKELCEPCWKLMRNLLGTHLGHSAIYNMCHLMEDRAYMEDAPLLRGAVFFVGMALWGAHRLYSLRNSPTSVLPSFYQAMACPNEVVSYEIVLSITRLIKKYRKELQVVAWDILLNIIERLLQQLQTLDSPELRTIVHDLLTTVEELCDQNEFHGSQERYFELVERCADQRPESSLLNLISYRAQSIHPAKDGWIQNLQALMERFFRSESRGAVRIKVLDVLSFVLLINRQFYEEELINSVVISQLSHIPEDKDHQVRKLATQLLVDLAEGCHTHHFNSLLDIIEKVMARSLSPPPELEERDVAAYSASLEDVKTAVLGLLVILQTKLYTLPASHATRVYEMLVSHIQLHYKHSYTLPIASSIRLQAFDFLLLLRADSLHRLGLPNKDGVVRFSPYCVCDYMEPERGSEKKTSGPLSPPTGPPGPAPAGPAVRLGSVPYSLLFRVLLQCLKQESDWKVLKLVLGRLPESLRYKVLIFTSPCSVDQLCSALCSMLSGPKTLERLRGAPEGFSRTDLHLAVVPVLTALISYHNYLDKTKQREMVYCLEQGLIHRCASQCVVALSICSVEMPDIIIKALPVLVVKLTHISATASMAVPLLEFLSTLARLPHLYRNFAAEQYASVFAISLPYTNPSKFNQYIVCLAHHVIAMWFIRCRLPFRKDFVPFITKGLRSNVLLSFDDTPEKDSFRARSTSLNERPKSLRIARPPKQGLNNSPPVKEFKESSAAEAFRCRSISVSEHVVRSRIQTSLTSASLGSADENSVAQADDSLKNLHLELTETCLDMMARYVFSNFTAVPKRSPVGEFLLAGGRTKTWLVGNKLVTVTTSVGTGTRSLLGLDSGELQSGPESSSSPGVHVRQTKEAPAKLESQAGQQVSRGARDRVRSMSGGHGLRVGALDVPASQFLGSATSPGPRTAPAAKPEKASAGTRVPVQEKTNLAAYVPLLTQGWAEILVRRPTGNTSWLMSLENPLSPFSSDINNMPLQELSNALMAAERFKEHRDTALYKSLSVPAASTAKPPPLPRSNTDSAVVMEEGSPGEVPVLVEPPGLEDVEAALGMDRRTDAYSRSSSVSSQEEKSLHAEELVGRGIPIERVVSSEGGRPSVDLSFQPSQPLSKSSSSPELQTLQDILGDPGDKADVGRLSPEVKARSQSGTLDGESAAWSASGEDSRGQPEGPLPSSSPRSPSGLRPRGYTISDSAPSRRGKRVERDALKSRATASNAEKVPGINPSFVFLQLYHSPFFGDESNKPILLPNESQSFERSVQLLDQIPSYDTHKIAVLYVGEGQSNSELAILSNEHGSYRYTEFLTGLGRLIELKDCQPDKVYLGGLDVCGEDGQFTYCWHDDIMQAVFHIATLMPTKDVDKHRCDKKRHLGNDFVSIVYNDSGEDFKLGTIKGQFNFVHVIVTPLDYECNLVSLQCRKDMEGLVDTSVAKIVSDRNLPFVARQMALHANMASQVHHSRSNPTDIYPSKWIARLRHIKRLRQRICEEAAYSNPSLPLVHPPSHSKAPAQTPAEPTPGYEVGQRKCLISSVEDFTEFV

In this experiment the target is TSC1 (human) (UniProt Q92574). The experiment can be described thus: co-IP; immunoprecipitation with antibodies specific for exogenous TSC1 from HEK 293 cells over-expressing TSC1 and wild-type TSC2 or a TSC2 variant; TSC2 detected by immunoblotting, TSC2:TSC1 ratio by densitometry. In general terms: A western blot detects proteins with antibodies after separation by electrophoresis.

Results are given in words; binding and its absence hold for the method and conditions named. In cells and extracts the contact can be indirect. Some results given as binding are weak or reduced against the parent protein; the word gives no strength.

As for “TSC2 I820del variant (from UniProt P49815-4 1-1784)”, the binding result was “binds”.

As to “TSC2 L1511H variant (from UniProt P49815-4 1-1784)”, the binding entry is reported as “binds”.

As to “TSC2 R1772C variant (from UniProt P49815-4 1-1784)”, the binding result is “binds”.

As for “TSC2 T993M variant (from UniProt P49815-4 1-1784)”, the binding entry was “binds”.

For the substance “wild-type TSC2 (from UniProt P49815-4 1-1784)”, the binding entry was “binds”.
